Data as given in article PMC4597091.
No constants are given. Whether binding was seen depends on the method and setting.

Protein sequences, listed by entry. Tags and fused reporters are not part of them. Residues count along the entry.
UniProt P00791, residues 60-385: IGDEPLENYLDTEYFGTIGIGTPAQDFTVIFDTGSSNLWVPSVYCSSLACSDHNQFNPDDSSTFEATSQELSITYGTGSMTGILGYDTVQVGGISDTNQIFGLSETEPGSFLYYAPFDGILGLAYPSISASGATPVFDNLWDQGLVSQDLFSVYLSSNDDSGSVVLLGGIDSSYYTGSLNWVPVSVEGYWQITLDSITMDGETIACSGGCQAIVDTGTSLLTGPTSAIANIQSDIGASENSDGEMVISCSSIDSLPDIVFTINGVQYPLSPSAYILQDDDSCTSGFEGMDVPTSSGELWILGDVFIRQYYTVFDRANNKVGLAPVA

T1: MmPepT1^ECD, extracellular domain of Mus musculus PepT1 (residues 391–580) (Mus musculus) (UniProt Q9JIP7)
T1 sequence: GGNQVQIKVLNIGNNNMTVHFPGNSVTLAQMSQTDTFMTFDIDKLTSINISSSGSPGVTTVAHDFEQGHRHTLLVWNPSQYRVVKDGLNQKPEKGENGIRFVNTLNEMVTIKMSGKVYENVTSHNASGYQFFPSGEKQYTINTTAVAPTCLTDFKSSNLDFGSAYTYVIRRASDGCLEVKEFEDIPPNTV


Assays:
[1] = biological target: T1, MmPepT1^ECD, extracellular domain of Mus musculus PepT1 (residues 391–580) (Mus musculus); experiment: SPR; PepT1^ECD or PepT2^ECD immobilised on a CM5 chip by amine coupling (1,000 RU); ligand 7.81-1000 μM injected; 20°C; 25 mM MES pH 6.5, 100 mM NaCl, 10 mM CaCl2, 0.005% Tween 20, 2 mg/ml dextran, 1 mg/ml salmon sperm DNA; global 1:1 model; both purified
[2] = biological target: T1, MmPepT1^ECD, extracellular domain of Mus musculus PepT1 (residues 391–580) (Mus musculus); experiment: AUC; purified ECDs; s0(20,W) values 2.16 and 2.22, Lamm equation fit; both purified
[3] = biological target: T1, MmPepT1^ECD, extracellular domain of Mus musculus PepT1 (residues 391–580) (Mus musculus); experiment: crystal structure; MmPepT1^ECD, space group P2(1)2(1)2(1), two monomers in the asymmetric unit; 20% PEG 6000, 0.1 M MES pH 6.0, 0.2 M ammonium chloride, 4°C; both purified

| binding [1] | binding [2] | binding [3] | Molecule |
| --- | --- | --- | --- |
| no binding (tested: 1000 μM) |  |  | pepsin (from UniProt P00791 60-385) (enzyme) |
|  | no binding | no binding | MmPepT1^ECD, extracellular domain of Mus musculus PepT1 (residues 391–580) (domain or fragment, UniProt Q9JIP7 391-580) GGNQVQIKVLNIGNNNMTVHFPGNSVTLAQMSQTDTFMTFDIDKLTSINISSSGSPGVTTVAHDFEQGHRHTLLVWNPSQYRVVKDGLNQKPEKGENGIRFVNTLNEMVTIKMSGKVYENVTSHNASGYQFFPSGEKQYTINTTAVAPTCLTDFKSSNLDFGSAYTYVIRRASDGCLEVKEFEDIPPNTV |
